Data published in paper PMC3192046.
These are yes or no findings as the source states them, for the method shown. In cells and extracts the contact can be indirect. Some results given as binding are weak or reduced against the parent protein; the word gives no strength.

Sequences of proteins named here, by UniProt entry; tags and fusion partners are left off.
UniProt P25963: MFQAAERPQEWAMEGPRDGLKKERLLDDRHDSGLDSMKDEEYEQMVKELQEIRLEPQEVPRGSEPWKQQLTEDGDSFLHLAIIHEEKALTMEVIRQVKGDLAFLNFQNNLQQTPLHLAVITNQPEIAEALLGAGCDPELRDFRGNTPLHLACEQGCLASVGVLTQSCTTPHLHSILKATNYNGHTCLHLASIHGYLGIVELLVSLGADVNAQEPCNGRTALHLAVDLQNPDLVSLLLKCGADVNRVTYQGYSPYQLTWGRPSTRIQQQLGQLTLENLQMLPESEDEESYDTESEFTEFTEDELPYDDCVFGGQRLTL

Target: IκBα WT (UniProt P25963)
Assay: co-IP; Protein-G cross-linked HA antibody precipitates exogenous IκBα WT or ubiquitin-IκBα fusion from HEK293 lysates (1% Igepal CA-630 lysis buffer, 15 min on ice); Western blot for IKKβ, βTrCP or p65; for IKKβ and βTrCP cells pretreated or not with 20 µM MG132 for 1 h and stimulated with 10 ng/ml TNFα for 20 min

B1: IKKβ kinase (enzyme, UniProt O14920 1-756)
chain: MSWSPSLTTQTCGAWEMKERLGTGGFGNVIRWHNQETGEQIAIKQCRQELSPRNRERWCLEIQIMRRLTHPNVVAARDVPEGMQNLAPNDLPLLAMEYCQGGDLRKYLNQFENCCGLREGAILTLLSDIASALRYLHENRIIHRDLKPENIVLQQGEQRLIHKIIDLGYAKELDQGSLCTSFVGTLQYLAPELLEQQKYTVTVDYWSFGTLAFECITGFRPFLPNWQPVQWHSKVRQKSEVDIVVSEDLNGTVKFSSSLPYPNNLNSVLAERLEKWLQLMLMWHPRQRGTDPTYGPNGCFKALDDILNLKLVHILNMVTGTIHTYPVTEDESLQSLKARIQQDTGIPEEDQELLQEAGLALIPDKPATQCISDGKLNEGHTLDMDLVFLFDNSKITYETQISPRPQPESVSCILQEPKRNLAFFQLRKVWGQVWHSIQTLKEDCNRLQQGQRAAMMNLLRNNSCLSKMKNSMASMSQQLKAKLDFFKTSIQIDLEKYSEQTEFGITSDKLLLAWREMEQAVELCGRENEVKLLVERMMALQTDIVDLQRSPMGRKQGGTLDDLEEQARELYRRLREKPRDQRTEGDSQEMVRLLLQAIQSFEKKVRVIYTQLSKTVVCKQKALELLPKVEEVVSLMNEDEKTVVRLQEKRQKELWNLLKIACSKVRGPVSGSPDSMNASRLSQPGQLMSQPSTASNSLPEPAKKSEELVAEAHNLCTLLENAIQDTVREQDQSFTALDWSWLQTEEEEHSCLEQAS
Q: How did the binding turn out when B1 was run?
A: binds
